These are literature values, as cited in patent publication EP4729056A1, “SELF-EMULSIFIABLE DOCETAXEL COMPOSITION FOR INJECTION AND PREPARATION METHOD THEREFOR” (BEIJING DELIINJE PHARM. TECHNOLOGY CO., LTD., priority 2023, dated 2024).

Where two headings read alike, the source gives them in different places.

Consider `CC(=O)O[C@@]12CO[C@@H]1C[C@H](O)[C@@]1(C)C(=O)[C@H](O)C3=C(C)[C@@H](OC(=O)[C@H](O)[C@@H](NC(=O)OC(C)(C)C)c4ccccc4)C[C@@](O)([C@@H](OC(=O)c4ccccc4)[C@H]21)C3(C)C` [docetaxel, Docetaxel], for which the solubility result was “soluble in organic solvents such as methanol and chloromethane” (in organic solvents such as methanol and chloromethane); “hardly soluble in water” (in water).
